Assay results published in PubChem BioAssay AID186 (DTP/NCI, 2004).
Values are animals surviving of animals treated; these mice carried no tumour. Counts of survivors are from the toxicity check (mostly the fifth day) where no day follows; animals may have died later. Schedule codes are those of the source, read here as Q, the interval in days (D) or hours (H), X, the number of doses. Some doses were run more than once; the values are given in rising order.

Tested on: B6D2F1 mice, nontumored toxicity test, survival
Assay: NCI In Vivo Anticancer Drug Screen. Data for tumor model Nontumored Animals (Toxicity Test) in B6D2F1 (BDF1) mice

Q: How did the survivor count (dose: 0.5 mg/kg/injection, schedule: Q01DX009 (ip), vehicle: lactic acid) turn out when `COc1cc(NS(C)(=O)=O)ccc1Nc1c2ccccc2nc2ccccc12` was run?
A: 8 of 8

Q: What about the survivor count (dose: 0.5 mg/kg/injection, schedule: Q03HX024 (oral), vehicle: lactic acid) of the same compound?
A: 8 of 8

Q: And the survivor count (dose: 1.0 mg/kg/injection, schedule: Q01DX009 (ip), vehicle: lactic acid)?
A: 8 of 8

Q: What about the survivor count (dose: 1.0 mg/kg/injection, schedule: Q01DX009 (oral), vehicle: lactic acid) of the same compound?
A: 8 of 8

Q: What about the survivor count (dose: 1.0 mg/kg/injection, schedule: Q03HX024 (oral), vehicle: lactic acid) of the same compound?
A: 8 of 8

Q: And the survivor count (dose: 1.0 mg/kg/injection, schedule: Q04DX003 (ip), vehicle: other)?
A: 5 of 5

Q: What about the survivor count (dose: 2.0 mg/kg/injection, schedule: Q01DX001 (ip), vehicle: lactic acid) of the same compound?
A: 8 of 8

Q: What about the survivor count (dose: 2.0 mg/kg/injection, schedule: Q01DX009 (ip), vehicle: lactic acid) of the same compound?
A: 8 of 8

Q: What about the survivor count (dose: 2.0 mg/kg/injection, schedule: Q01DX009 (oral), vehicle: lactic acid) of the same compound?
A: 8 of 8

Q: What about the survivor count (dose: 2.0 mg/kg/injection, schedule: Q03HX016 (oral), vehicle: lactic acid) of the same compound?
A: 8 of 8

Q: What about the survivor count (dose: 2.0 mg/kg/injection, schedule: Q03HX024 (oral), vehicle: lactic acid) of the same compound?
A: 8 of 8

Q: And the survivor count (dose: 2.0 mg/kg/injection, schedule: Q04DX003 (ip), vehicle: other)?
A: 5 of 5

Q: What about the survivor count (dose: 2.0 mg/kg/injection, schedule: Q04DX003 (oral), vehicle: lactic acid) of the same compound?
A: 8 of 8

Q: What about the survivor count (dose: 4.0 mg/kg/injection, schedule: Q01DX001 (ip), vehicle: lactic acid) of the same compound?
A: 8 of 8

Q: And the survivor count (dose: 4.0 mg/kg/injection, schedule: Q01DX009 (ip), vehicle: lactic acid)?
A: 8 of 8

Q: What about the survivor count (dose: 4.0 mg/kg/injection, schedule: Q01DX009 (oral), vehicle: lactic acid) of the same compound?
A: 8 of 8

Q: And the survivor count (dose: 4.0 mg/kg/injection, schedule: Q03HX016 (oral), vehicle: lactic acid)?
A: 3 of 8

Q: What about the survivor count (dose: 4.0 mg/kg/injection, schedule: Q03HX024 (oral), vehicle: lactic acid) of the same compound?
A: 4 of 8

Q: And the survivor count (dose: 4.0 mg/kg/injection, schedule: Q04DX003 (ip), vehicle: other)?
A: 5 of 5

Q: And the survivor count (dose: 4.0 mg/kg/injection, schedule: Q04DX003 (oral), vehicle: lactic acid)?
A: 8 of 8

Q: And the survivor count (dose: 7.0 mg/kg/injection, schedule: Q04DX003 (ip), vehicle: lactic acid)?
A: 9 of 10 and 10 of 10

Q: What about the survivor count (dose: 8.0 mg/kg/injection, schedule: Q01DX001 (ip), vehicle: lactic acid) of the same compound?
A: 8 of 8

Q: And the survivor count (dose: 8.0 mg/kg/injection, schedule: Q01DX001 (oral), vehicle: lactic acid)?
A: 8 of 8

Q: What about the survivor count (dose: 8.0 mg/kg/injection, schedule: Q01DX009 (ip), vehicle: lactic acid) of the same compound?
A: 8 of 8

Q: And the survivor count (dose: 8.0 mg/kg/injection, schedule: Q01DX009 (oral), vehicle: lactic acid)?
A: 8 of 8

Q: What about the survivor count (dose: 8.0 mg/kg/injection, schedule: Q03HX016 (oral), vehicle: lactic acid) of the same compound?
A: 0 of 8

Q: And the survivor count (dose: 8.0 mg/kg/injection, schedule: Q03HX024 (oral), vehicle: lactic acid)?
A: 0 of 8

Q: And the survivor count (dose: 8.0 mg/kg/injection, schedule: Q04DX003 (ip), vehicle: other)?
A: 5 of 5

Q: What about the survivor count (dose: 8.0 mg/kg/injection, schedule: Q04DX003 (oral), vehicle: lactic acid) of the same compound?
A: 8 of 8

Q: And the survivor count (dose: 8.0 mg/kg/injection, schedule: Q08DX002 (oral), vehicle: lactic acid)?
A: 8 of 8

Q: What about the survivor count (dose: 11.0 mg/kg/injection, schedule: Q04DX003 (ip), vehicle: lactic acid) of the same compound?
A: 10 of 10

Q: What about the survivor count (dose: 16.0 mg/kg/injection, schedule: Q01DX001 (ip), vehicle: lactic acid) of the same compound?
A: 7 of 8

Q: And the survivor count (dose: 16.0 mg/kg/injection, schedule: Q01DX001 (oral), vehicle: lactic acid)?
A: 8 of 8

Q: And the survivor count (dose: 16.0 mg/kg/injection, schedule: Q01DX009 (oral), vehicle: lactic acid)?
A: 8 of 8

Q: And the survivor count (dose: 16.0 mg/kg/injection, schedule: Q03HX016 (oral), vehicle: lactic acid)?
A: 0 of 8

Q: And the survivor count (dose: 16.0 mg/kg/injection, schedule: Q04DX003 (ip), vehicle: lactic acid)?
A: 10 of 10

Q: And the survivor count (dose: 16.0 mg/kg/injection, schedule: Q04DX003 (ip), vehicle: other)?
A: 5 of 5

Q: What about the survivor count (dose: 16.0 mg/kg/injection, schedule: Q04DX003 (oral), vehicle: lactic acid) of the same compound?
A: 8 of 8

Q: And the survivor count (dose: 16.0 mg/kg/injection, schedule: Q08DX002 (oral), vehicle: lactic acid)?
A: 8 of 8

Q: And the survivor count (dose: 24.0 mg/kg/injection, schedule: Q04DX003 (ip), vehicle: lactic acid)?
A: 6 of 10 and 10 of 10

Q: And the survivor count (dose: 32.0 mg/kg/injection, schedule: Q01DX001 (ip), vehicle: lactic acid)?
A: 3 of 8

Q: What about the survivor count (dose: 32.0 mg/kg/injection, schedule: Q01DX001 (oral), vehicle: lactic acid) of the same compound?
A: 8 of 8

Q: What about the survivor count (dose: 32.0 mg/kg/injection, schedule: Q03HX016 (oral), vehicle: lactic acid) of the same compound?
A: 1 of 8

Q: What about the survivor count (dose: 32.0 mg/kg/injection, schedule: Q04DX003 (oral), vehicle: lactic acid) of the same compound?
A: 8 of 8

Q: And the survivor count (dose: 32.0 mg/kg/injection, schedule: Q08DX002 (oral), vehicle: lactic acid)?
A: 8 of 8

Q: What about the survivor count (dose: 64.0 mg/kg/injection, schedule: Q01DX001 (oral), vehicle: lactic acid) of the same compound?
A: 4 of 8

Q: What about the survivor count (dose: 64.0 mg/kg/injection, schedule: Q04DX003 (oral), vehicle: lactic acid) of the same compound?
A: 4 of 8

Q: And the survivor count (dose: 64.0 mg/kg/injection, schedule: Q08DX002 (oral), vehicle: lactic acid)?
A: 5 of 8

Q: What about the survivor count (dose: 128.0 mg/kg/injection, schedule: Q01DX001 (oral), vehicle: lactic acid) of the same compound?
A: 0 of 8

Q: And the survivor count (dose: 128.0 mg/kg/injection, schedule: Q08DX002 (oral), vehicle: lactic acid)?
A: 2 of 8

Q: Which results are given for `O=NN(CCCl)C(=O)NC1CCCCC1`?
A: survivor count (dose: 2.7 mg/kg/injection, schedule: Q01DX001 (ip), vehicle: saline + alcohol): 10 of 10; survivor count (dose: 4.7 mg/kg/injection, schedule: Q01DX001 (ip), vehicle: saline + alcohol): 10 of 10; survivor count (dose: 5.4 mg/kg/injection, schedule: Q04DX003 (ip), vehicle: other): 5 of 5; survivor count (dose: 9.0 mg/kg/injection, schedule: Q04DX003 (ip), vehicle: other): 5 of 5; survivor count (dose: 9.5 mg/kg/injection, schedule: Q01DX001 (ip), vehicle: saline + alcohol): 10 of 10; survivor count (dose: 15.0 mg/kg/injection, schedule: Q04DX003 (ip), vehicle: other): 5 of 5; survivor count (dose: 18.9 mg/kg/injection, schedule: Q01DX001 (ip), vehicle: saline + alcohol): 10 of 10; survivor count (dose: 21.0 mg/kg/injection, schedule: Q01DX001 (ip), vehicle: carboxymethylcellulose (CMC)): 10 of 10; survivor count (dose: 25.0 mg/kg/injection, schedule: Q04DX003 (ip), vehicle: other): 5 of 5; survivor count (dose: 32.0 mg/kg/injection, schedule: Q01DX001 (ip), vehicle: carboxymethylcellulose (CMC)): 10 of 10; survivor count (dose: 37.8 mg/kg/injection, schedule: Q01DX001 (ip), vehicle: saline + alcohol): 10 of 10; survivor count (dose: 41.7 mg/kg/injection, schedule: Q04DX003 (ip), vehicle: other): 5 of 5; survivor count (dose: 48.0 mg/kg/injection, schedule: Q01DX001 (ip), vehicle: carboxymethylcellulose (CMC)): 10 of 10; survivor count (dose: 50.0 mg/kg/injection, schedule: Q01DX001 (ip), vehicle: carboxymethylcellulose (CMC)): 10 of 10; survivor count (dose: 75.7 mg/kg/injection, schedule: Q01DX001 (ip), vehicle: saline + alcohol): 10 of 10

Q: Which survivor count (dose: 0.75 mg/kg/injection, schedule: Q06HX024 (ip), vehicle: saline) does the source give for `CN(C)c1ncnc2c1ncn2C1OC(CO)C(N)C1O` (stereo unspecified) here?
A: 5 of 6

Q: What about the survivor count (dose: 1.5 mg/kg/injection, schedule: Q06HX024 (ip), vehicle: saline) of the same compound?
A: 6 of 6

Q: What about the survivor count (dose: 3.0 mg/kg/injection, schedule: Q06HX024 (ip), vehicle: saline) of the same compound?
A: 6 of 6

Q: And the survivor count (dose: 6.0 mg/kg/injection, schedule: Q06HX024 (ip), vehicle: saline)?
A: 6 of 6

Q: `CS(C)=O` was tested. Which survivor count (dose: 0.6 grams/kg/injection, schedule: Q01DX001 (ip), vehicle: DMSO) did it give?
A: 10 of 10

Q: What about the survivor count (dose: 0.6 grams/kg/injection, schedule: Q01DX001 (ip), vehicle: other) of the same compound?
A: 10 of 10

Q: And the survivor count (dose: 0.8 grams/kg/injection, schedule: Q01DX001 (ip), vehicle: other)?
A: 10 of 10

Q: And the survivor count (dose: 1.2 grams/kg/injection, schedule: Q01DX001 (ip), vehicle: other)?
A: 10 of 10

Q: What about the survivor count (dose: 1.3 grams/kg/injection, schedule: Q01DX001 (ip), vehicle: DMSO) of the same compound?
A: 10 of 10

Q: And the survivor count (dose: 1.6 grams/kg/injection, schedule: Q01DX001 (ip), vehicle: other)?
A: 10 of 10

Q: What about the survivor count (dose: 2.3 grams/kg/injection, schedule: Q01DX001 (ip), vehicle: other) of the same compound?
A: 10 of 10

Q: And the survivor count (dose: 2.5 grams/kg/injection, schedule: Q01DX001 (ip), vehicle: DMSO)?
A: 10 of 10

Q: What about the survivor count (dose: 3.1 grams/kg/injection, schedule: Q01DX001 (ip), vehicle: other) of the same compound?
A: 10 of 10

Q: And the survivor count (dose: 4.7 grams/kg/injection, schedule: Q01DX001 (ip), vehicle: other)?
A: 10 of 10

Q: And the survivor count (dose: 5.0 grams/kg/injection, schedule: Q01DX001 (ip), vehicle: DMSO)?
A: 10 of 10

Q: And the survivor count (dose: 5.0 grams/kg/injection, schedule: Q01DX002 (ip), vehicle: DMSO)?
A: 9 of 10

Q: What about the survivor count (dose: 5.0 grams/kg/injection, schedule: Q01DX003 (ip), vehicle: DMSO) of the same compound?
A: 8 of 10

Q: And the survivor count (dose: 5.0 grams/kg/injection, schedule: Q01DX004 (ip), vehicle: DMSO)?
A: 4 of 10

Q: And the survivor count (dose: 5.0 grams/kg/injection, schedule: Q01DX005 (ip), vehicle: DMSO)?
A: 7 of 10

Q: What about the survivor count (dose: 5.0 grams/kg/injection, schedule: Q01DX006 (ip), vehicle: DMSO) of the same compound?
A: 10 of 10

Q: And the survivor count (dose: 5.0 grams/kg/injection, schedule: Q01DX007 (ip), vehicle: DMSO)?
A: 7 of 10

Q: What about the survivor count (dose: 5.0 grams/kg/injection, schedule: Q01DX008 (ip), vehicle: DMSO) of the same compound?
A: 8 of 10

Q: And the survivor count (dose: 5.0 grams/kg/injection, schedule: Q01DX009 (ip), vehicle: DMSO)?
A: 5 of 10

Q: What about the survivor count (dose: 6.3 grams/kg/injection, schedule: Q01DX001 (ip), vehicle: other) of the same compound?
A: 10 of 10

Q: And the survivor count (dose: 9.4 grams/kg/injection, schedule: Q01DX001 (ip), vehicle: other)?
A: 10 of 10

Q: How did the survivor count (dose: 0.12 mg/kg/injection, schedule: Q01DX001 (ip), vehicle: saline) turn out when `Cc1cc2c(c3oc(C4(C)OC4C4OC4C)cc(=O)c13)C(=O)c1c(O)c(C3CC(C)(N(C)C)C(O)C(C)O3)cc(C3CC(N(C)C)C(O)C(C)O3)c1C2=O` (stereo unspecified) was run?
A: 8 of 8

Q: And the survivor count (dose: 0.24 mg/kg/injection, schedule: Q01DX001 (ip), vehicle: saline)?
A: 8 of 8

Q: And the survivor count (dose: 0.48 mg/kg/injection, schedule: Q01DX001 (ip), vehicle: saline)?
A: 8 of 8

Q: What about the survivor count (dose: 3.0 micrograms/kg/injection, schedule: Q01DX009 (ip), vehicle: saline) of the same compound?
A: 8 of 8

Q: What about the survivor count (dose: 6.0 micrograms/kg/injection, schedule: Q01DX009 (ip), vehicle: saline) of the same compound?
A: 8 of 8

Q: And the survivor count (dose: 12.0 micrograms/kg/injection, schedule: Q01DX009 (ip), vehicle: saline)?
A: 8 of 8
